In PMC9318816, “Differential Effects of a Novel Opioid Ligand UTA1003 on Antinociceptive Tolerance and Motor Behaviour” (Pharmaceuticals, 2022):
Entries after “also recorded” stand apart in the source; their conditions may differ.

What was measured:
Sprague Dawley rats [1] = test: Tail flick antinociception assay; details: 8 days, s.c. twice daily
Sprague Dawley rats [2] = test: Hot plate antinociception assay; details: 8 days, s.c. twice daily

In the case of CN1CC[C@]23c4c5ccc(O)c4O[C@H]2[C@@H](O)C=C[C@H]3[C@H]1C5 [morphine], the “Total antinociception (AUC), tail flick” value (Sprague Dawley rats [1]) is reported as “higher than UTA1003; also recorded: lower than UTA1003/morphine group” and the “Total antinociception (AUC), hot plate” value (Sprague Dawley rats [2]) is reported as “higher than UTA1003; also recorded: lower than UTA1003/morphine group”.
